At least one structure is not confirmed: it was looked up by name or label, or the drawing left a doubt.
Target: T1, PSMA (Homo sapiens, UniProt Q04609)
T1 construct: expressed in transfected cells; host or cells: PC3pip cells (PC3 retrovirally transduced with PSMA), from Dr. Michel Sadelain, MSKCC
Experiment: Competition binding studies, Example 2
Details: read-out: IC50, concentration required to inhibit 50% of the binding; PC3pip cells, 12 nM 3H-ZJ24, 1 h, 37° C.
Description: PC3pip cells ([…]) was suspended in 200 μL of 50 mM Tris buffer, pH 7.5. The cells were incubated at 37° C. with different concentrations of PSMA-1-MMAE-IR700 or ZJ24 in the presence of 12 nM of 3H-ZJ24 for 1 h. The cells were then washed 3 times with cold PBS and cell-associated radioactivity was measured by scintillation counting. The concentration required to inhibit 50% of the binding (IC50) was determined by GraphPad Prism 3.0. Studies were performed in triplicate.

Sequences of proteins named here, by UniProt entry; tags and fusion partners are left off.
UniProt Q04609, whole entry: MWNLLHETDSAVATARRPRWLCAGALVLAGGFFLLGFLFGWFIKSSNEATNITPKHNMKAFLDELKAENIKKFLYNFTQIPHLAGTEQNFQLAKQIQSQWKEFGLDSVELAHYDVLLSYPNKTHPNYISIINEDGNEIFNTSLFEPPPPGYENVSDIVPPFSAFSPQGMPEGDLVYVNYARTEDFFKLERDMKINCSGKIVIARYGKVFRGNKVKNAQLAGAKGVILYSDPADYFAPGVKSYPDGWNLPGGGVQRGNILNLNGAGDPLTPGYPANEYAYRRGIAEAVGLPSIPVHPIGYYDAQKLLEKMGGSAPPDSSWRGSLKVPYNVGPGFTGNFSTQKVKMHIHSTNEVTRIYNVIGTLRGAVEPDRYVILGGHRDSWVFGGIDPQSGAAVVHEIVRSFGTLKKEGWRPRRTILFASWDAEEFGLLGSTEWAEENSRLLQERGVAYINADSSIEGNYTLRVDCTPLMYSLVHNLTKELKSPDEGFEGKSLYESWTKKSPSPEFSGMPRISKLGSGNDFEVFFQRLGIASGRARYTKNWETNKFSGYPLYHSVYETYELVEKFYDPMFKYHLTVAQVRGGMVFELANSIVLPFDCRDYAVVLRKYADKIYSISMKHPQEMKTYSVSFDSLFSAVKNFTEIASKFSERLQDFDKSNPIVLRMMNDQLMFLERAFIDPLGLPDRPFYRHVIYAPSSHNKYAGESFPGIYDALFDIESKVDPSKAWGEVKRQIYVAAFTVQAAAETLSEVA

CC[C@H](C)[C@@H]([C@@H](CC(=O)N1CCC[C@H]1[C@H](OC)[C@@H](C)C(=O)N[C@H](C)[C@@H](O)c1ccccc1)OC)N(C)C(=O)[C@@H](NC(=O)[C@H](C(C)C)N(C)C(=O)OCc1ccc(NC(=O)[C@H](CCCNC(N)=O)NC(=O)[C@@H](NC(=O)CCCCCN2C(=O)CC(SC[C@H](NC(=O)[C@H](CCC(=O)O)NC(=O)[C@H](CCC(=O)O)NC(=O)[C@H](CCC(=O)O)NC(=O)CCCCCNC(=O)[C@H]3CC[C@H](CNC(=O)CC[C@H](NC(=O)N[C@@H](CCC(=O)O)C(=O)O)C(=O)O)CC3)C(=O)NCCCCCC(=O)N[C@@H](CCCCNC(=O)CCCCCNC(=O)OCCCOc3cccc4c5n6c(c34)=NC3=NC(=Nc4c7ccccc7c(n4[Si]6(O[Si](C)(C)CCC[N+](CCCS(=O)(=O)[O-])(CCCS(=O)(=O)O)CCCS(=O)(=O)O)O[Si](C)(C)CCC[N+](CCCS(=O)(=O)[O-])(CCCS(=O)(=O)O)CCCS(=O)(=O)O)N=C4N=C(N=5)c5ccccc54)c4ccccc43)C(N)=O)C2=O)C(C)C)cc1)C(C)C (stereo partly shown) [PSMA-1-MMAE-IR700]
IC50: 2.44 ± 0.43 nM
